Assay results from US20110189194A1, “USE OF CD95 INHIBITORS FOR THE TREATMENT OF INFLAMMATORY DISORDERS” (Deutsches Krebsforschungszentrum Stiftung des offentlichen …, priority 2008, published 2011).

Tested on: neutrophils
Assay: Annexin-V staining of neutrophils (apoptosis levels) after SCI or thioglycolate
Type: in vivo, mice
Experimental: Mice were treated intravenously 5 minutes after SCI or induction of thioglycolate-induced peritonitis with 50 μg (solved in 200 μl sterile PBS) of either CD95-RB69 or a mutated form, CD95-(R87S)-RB69, which is unable to bind CD95L.
Annexin-V staining was performed on the neutrophil population either from the peritoneal exudates or from the injured spinal cord. After gating on the neutrophil population using appropriate markers and characteristic FSC and SSC, the percentage of annexin-V positive cells was determined by using a phycoerythrin-conjugated annexin-V according to the manufacturer's protocol (Calbiochem # CBA060).

B1: CD95-RB69: CD95L-neutralizing trimeric fusion protein: human CD95-ECD (M1-E168) fused to bacteriophage RB69 fibritin foldon domain, with streptag-II (protein)
chain: MVGIWTLLPLVLTSVARLSSKSVNAQVTDINSKGLELRKTVTTVETQNLEGLHHDGQFCHKPCPPGERKARDCTVNGDEPDCVPCQEGKEYTDKAHFSSKCRRCRLCDEGHGLEVEINCTRTQNTKCRCKPNFFCNSTVCEHCDPCTKCEHGIIKECTLTSNTKCKEEGSSGSSGSSGSGYIEDAPSDGKFYVRKDGAWVELPTASGPSSSSSSAWSHPQFEK
modifications: CD95-RB69 fusion protein
notes: CD95L-neutralizing trimeric fusion protein: human CD95-ECD (M1-E168) fused to bacteriophage RB69 fibritin foldon domain, with streptag-II
SCI, 24 h after injury
  Apoptosis levels, annexin V % positive cells ± SEM, neutrophils in spinal cord: 9.56 ± 1.19%
thioglycollate-induced peritonitis, 6 h after injection
  Apoptosis levels, annexin V % positive cells ± SEM, thioglycollate-elicited neutrophils: 4.90 ± 0.67%
